The record followed here is article PMC7819943, “Rice protein-binding microarrays: a tool to detect cis-acting elements near promoter regions in rice”.

By UniProt entry, the sequences of proteins in these tests, tags left out.
UniProt Q0JBA9, entry or part of it: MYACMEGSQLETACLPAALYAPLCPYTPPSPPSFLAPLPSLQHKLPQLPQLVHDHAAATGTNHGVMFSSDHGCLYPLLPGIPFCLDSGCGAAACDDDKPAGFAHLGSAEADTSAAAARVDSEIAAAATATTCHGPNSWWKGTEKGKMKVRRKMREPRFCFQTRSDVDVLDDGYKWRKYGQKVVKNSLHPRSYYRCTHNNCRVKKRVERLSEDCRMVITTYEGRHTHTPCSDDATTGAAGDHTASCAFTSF

The list shows a part of the results.

The test deals with OsWRKY34 (Oryza sativa, UniProt Q0JBA9 1-250). Briefly: protein-binding microarray (RPBM); PBS, 2% BSA, 51.3 ng/ul salmon testes DNA, 50 uM zinc acetate, 200 nM TF, 25 C, 1 h; high values mean tight binding. The following applies: protein: recombinant; tags: N-terminal polyhistidine and DsRed monomer fusion (pET32a); label: CyDye5-dUTP incorporated in the synthesized complementary strand; 3' TTTTT single-stranded linker to array surface; dsDNA, one strand shown. Summed up:
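For the binding signal, per-feature fluorescence intensity was read in arbitrary units on an Axon 4000B scanner. Before scanning, a 2% BSA-blocked custom Agilent array made double-stranded with Cy5-dUTP was washed after 1 h at 25 °C with 200 nM protein and 50 µM zinc acetate. The proteins were Ni–NTA-purified transcription factors with N-terminal polyhistidine and DsRed fusions, expressed in E. coli BL21-CodonPlus.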
Consider “ATTGTGTATGCCATTTTATTCATATATGATTTCCGTGTTGCGGAGTCACCTAGTGCAG”, for which the binding signal is 8150 fluorescence intensity (a.u.).
Turning to “GATTCATCGATCTTTTACGAGTACTATTTTTGTGATTATTCGGAGTCACCTAGTGCAG”, the binding signal was 11300 fluorescence intensity (a.u.).
As to “TCGTTTCGTTTCGTTTTGGGAATTGCGAGGCACCTCTCTTCGGAGTCACCTAGTGCAG”, the binding signal was 8670 fluorescence intensity (a.u.).
As to “GCGATCACGCTCGGCAACCACCTGCGCAACTTCACCACCCCGGAGTCACCTAGTGCAG”, the binding signal is 8050 fluorescence intensity (a.u.).
Consider “CACCTCGCCCGGCCCAACCCCAGCTAATCGCGATCAAACGCGGAGTCACCTAGTGCAG”, for which the binding signal was 8790 fluorescence intensity (a.u.).
The figure for “GATCCCACGGCATTTAGGCCCTGTTTGTTCACACCAAACTCGGAGTCACCTAGTGCAG” is 8590 fluorescence intensity (a.u.); for “CGTATTGAAAAAAACGGATCTACCGTTGACTTTGGACAAACGGAGTCACCTAGTGCAG” it is 11000 fluorescence intensity (a.u.).
As to “CTGATGATCTATGGCATCGACGGGGCCCACTTTTCTCGAACGGAGTCACCTAGTGCAG”, the binding signal was 8700 fluorescence intensity (a.u.).
For “ATGTTGTTTGCTTGTATGTTTGGTCGTTTTCCATCCTTTGCGGAGTCACCTAGTGCAG”, the binding signal was 9130 fluorescence intensity (a.u.).
Turning to “GCCGCTATCGACCATGGTCAGCCCTTAACCTAGCTTGTATCGGAGTCACCTAGTGCAG”, the binding signal was 9290 fluorescence intensity (a.u.).
Consider “TCGTCCTTGTAAGTACTCTAGTTGTTCTCCCTTTTTTTTTCGGAGTCACCTAGTGCAG”, for which the binding signal was 10800 fluorescence intensity (a.u.).
Take “GCGGGGAGGGGCGGCGCCGACGCCTCATCGACTAGTTCACCGGAGTCACCTAGTGCAG”: the binding signal is 8720 fluorescence intensity (a.u.).
As for “GCATTTTCTCCTTCGTTTACTCGATCTGCTTCCTTCGACACGGAGTCACCTAGTGCAG”, the binding signal was 12300 fluorescence intensity (a.u.).
Take “ATTTTTGATGCTTGCTCGTTTTTTTCCTGCACTCATAACACGGAGTCACCTAGTGCAG”: the binding signal is 11000 fluorescence intensity (a.u.).
Take “GCCTCTGTGGCGGGCGGTGCTTTTGTTTATTTGTTCACATCGGAGTCACCTAGTGCAG”: the binding signal was 9540 fluorescence intensity (a.u.).
Consider “ATTCAGTTGGTTTGGGGATTTAGATGTGGGCTCCTTCTTTCGGAGTCACCTAGTGCAG”, for which the binding signal was 13200 fluorescence intensity (a.u.).
In the case of “ACGTCCATGATGTACTCCACGCGCCGCTCTTTCTCCGTCACGGAGTCACCTAGTGCAG” it was 8170 fluorescence intensity (a.u.); in that of “CTGTAGTGTTGCTTGGTTTCTCTTTTTTGCCTCTTCACGGCGGAGTCACCTAGTGCAG”, 13200 fluorescence intensity (a.u.).
In the case of “CATGTATTCTTTTCCAGGCCCATTAGTCTATTGCGTGTGTCGGAGTCACCTAGTGCAG” it was 9450 fluorescence intensity (a.u.); in that of “TAAAACTTGAGAAATGTAGCTGTCCATCTTTTGTTCGAATCGGAGTCACCTAGTGCAG”, 8370 fluorescence intensity (a.u.); in that of “TTTTTCAACCTTAGTTTTATTTTCCTCGTGATTTCAAAATCGGAGTCACCTAGTGCAG”, 9550 fluorescence intensity (a.u.).
For “GGCCCATCTGACCAAGCCCAGCTCGCGTCGTCGTGTTGATCGGAGTCACCTAGTGCAG”, the binding signal is 8930 fluorescence intensity (a.u.).
In the case of “GCCACTTGTAGTATGATGTGTTTGTTTCCTACCATAACTACGGAGTCACCTAGTGCAG”, the binding signal is 8120 fluorescence intensity (a.u.).
Consider “GCTTGAGCATCTCTGTTGATCCATGATATACTCTTAATTTCGGAGTCACCTAGTGCAG”, for which the binding signal is 8130 fluorescence intensity (a.u.).
The figure for “CCCCACCCTGTACTCTCTCCGTACATTACCGTCCCTTCCCCGGAGTCACCTAGTGCAG” is 8380 fluorescence intensity (a.u.).
Regarding “TATATATTCTGGTTTATTTTATGTACTAGTCATTGTTACTCGGAGTCACCTAGTGCAG”, the binding signal is 8360 fluorescence intensity (a.u.).
Turning to “TTTGACCTTGTTATGCCTTACTTGTTTGATTTGACCCTATCGGAGTCACCTAGTGCAG”, the binding signal was 10300 fluorescence intensity (a.u.).
For the sequence “CCATTCATTCGTTCGTTCACCTTGACTGACCACTGCAACTCGGAGTCACCTAGTGCAG”, the binding signal is 11500 fluorescence intensity (a.u.).
As for “GGTGCCCCTTTGTCCAGCTAGCGATACCTCTCCTGCATACCGGAGTCACCTAGTGCAG”, the binding signal was 9920 fluorescence intensity (a.u.).
Consider “CTCCTCGCCTCTCTCGAACGCCGATTTCCCCTTCTCTCTCCGGAGTCACCTAGTGCAG”, for which the binding signal is 8710 fluorescence intensity (a.u.).
Regarding “TCTGCCAAGGTTGTTGTTTGTTCCTACAGTTGAGAGTTGACGGAGTCACCTAGTGCAG”, the binding signal was 10000 fluorescence intensity (a.u.).
In the case of “ATTCATATGTTTTTCCTTTATTTTGCAATCATCTGTTTTACGGAGTCACCTAGTGCAG”, the binding signal was 13300 fluorescence intensity (a.u.).
As to “AGTCACCAGTATTTGTATTTCTTTTTGCCGATTTTTGGCCCGGAGTCACCTAGTGCAG”, the binding signal was 11800 fluorescence intensity (a.u.).
“CACTTGGGCAAGAGATCCTCCTTCTTCTTCTTGTTATTGCCGGAGTCACCTAGTGCAG”: the binding signal is 9530 fluorescence intensity (a.u.).
For “CATCTCCATCTCCAGCTTAACTCAAGCCATCACAACTTAACGGAGTCACCTAGTGCAG”, the binding signal was 12300 fluorescence intensity (a.u.).
The figure for “CATACTCCTTGTTCCTGAGCCATACCTCGCCACCTTGCTGCGGAGTCACCTAGTGCAG” is 9010 fluorescence intensity (a.u.); for “AGGTGGGCTTTTGTGATTTTCCAAAGAATTAATCTTCGAGCGGAGTCACCTAGTGCAG” it is 11500 fluorescence intensity (a.u.); for “ATTCCTGTATCATTATCTGATATGTTTTGGGTGATAAATGCGGAGTCACCTAGTGCAG” it is 8200 fluorescence intensity (a.u.).
As to “ACTGCTGTCTCCGCGTTACTCTACGCATGCATGCATGTATCGGAGTCACCTAGTGCAG”, the binding signal was 10000 fluorescence intensity (a.u.).
Regarding “GTTTCAGGTTTTTGCAGCCAACAGTTTTGCTGATTTTTTACGGAGTCACCTAGTGCAG”, the binding signal was 9480 fluorescence intensity (a.u.).
For “AAGCCCCTGCGCCCATCTCTCACGCCAACGCAGACCGACACGGAGTCACCTAGTGCAG”, the binding signal was 8090 fluorescence intensity (a.u.).
As for “ATCCGCCATCGTGCTGAGCACATCTTCAATGTTTCTTTCTCGGAGTCACCTAGTGCAG”, the binding signal was 8390 fluorescence intensity (a.u.).
